From patent publication US9857355B2, “Biological assay of peptidoglycans” (ROQUETTE FRERES, priority 2013, dated 2018)
Where a name gives a salt, the structure may show the parent alone. Not every detail of the peptide structures is certain; ends, links or a residue may be inferred. Residues, ends and D or L forms follow the SMILES beside them. *: point of attachment. X1 = CCCCCCCCCCCCCCCC(=O)OCC(C*)OC(=O)CCCCCCCCCCCCCCC; Palmitoyl = CCCCCCCCCCCCCCCC(=O)*

Chains of the proteins cited; added tags and fusions are not shown. Residues count along the entry.
UniProt O60603, 19-784 limits assumed: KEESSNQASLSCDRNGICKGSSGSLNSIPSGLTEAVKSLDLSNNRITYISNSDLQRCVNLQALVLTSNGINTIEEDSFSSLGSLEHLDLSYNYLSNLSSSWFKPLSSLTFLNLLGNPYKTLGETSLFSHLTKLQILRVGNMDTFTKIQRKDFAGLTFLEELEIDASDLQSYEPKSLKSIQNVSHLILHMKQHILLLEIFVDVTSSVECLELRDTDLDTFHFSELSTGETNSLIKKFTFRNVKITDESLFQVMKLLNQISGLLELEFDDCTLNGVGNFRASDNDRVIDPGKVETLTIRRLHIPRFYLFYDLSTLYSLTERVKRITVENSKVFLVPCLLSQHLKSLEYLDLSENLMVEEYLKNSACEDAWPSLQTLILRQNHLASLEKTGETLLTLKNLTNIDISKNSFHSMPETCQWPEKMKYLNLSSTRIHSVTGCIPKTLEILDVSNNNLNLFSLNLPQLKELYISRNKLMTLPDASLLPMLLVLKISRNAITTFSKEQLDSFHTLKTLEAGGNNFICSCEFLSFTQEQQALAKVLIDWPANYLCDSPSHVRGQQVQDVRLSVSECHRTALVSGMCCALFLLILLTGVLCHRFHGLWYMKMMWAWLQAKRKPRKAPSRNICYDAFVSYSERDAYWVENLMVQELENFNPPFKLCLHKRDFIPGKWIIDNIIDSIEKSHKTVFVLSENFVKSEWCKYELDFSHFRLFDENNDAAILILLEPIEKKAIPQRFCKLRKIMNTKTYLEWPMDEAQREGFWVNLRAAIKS

Biological target: TLR2 receptor (Homo sapiens, UniProt O60603)
Assay: HEK-Blue hTLR2 cell SEAP reporter response assay
Assay type: cell-based
Details: read-out: concentration giving a response equal to 50% of the maximum response (EC50); HEK-TLR2 cells, 24 h stimulation, SEAP absorbance; substance diluted in uncontaminated maltodextrin solution 37.5% (weight/volume)

CCCCCCCCCCCCCCCC(=O)N[C@@H](CSCC(COC(=O)CCCCCCCCCCCCCCC)OC(=O)CCCCCCCCCCCCCCC)C(=O)N[C@@H](CO)C(=O)N[C@@H](CCCCN)C(=O)N[C@@H](CCCCN)C(=O)N[C@@H](CCCCN)C(=O)N[C@@H](CCCCN)C(=O)O (stereo partly drawn) [PAM3(cys), PAM3Cys-Ser-(Lys)4 trihydrochloride] (Palmitoyl-C(X1)SKKKK-OH)
EC50: ~6.62 nM
